Experimental data reported in PMC11339422.
Results are given in words; binding and its absence hold for the method and conditions named. Binding seen in cells or lysates may run through a third protein. Some results given as binding are weak or reduced against the parent protein; the word gives no strength.

The chains behind the UniProt entries cited, without tags or fusion partners.
UniProt Q7KZF4: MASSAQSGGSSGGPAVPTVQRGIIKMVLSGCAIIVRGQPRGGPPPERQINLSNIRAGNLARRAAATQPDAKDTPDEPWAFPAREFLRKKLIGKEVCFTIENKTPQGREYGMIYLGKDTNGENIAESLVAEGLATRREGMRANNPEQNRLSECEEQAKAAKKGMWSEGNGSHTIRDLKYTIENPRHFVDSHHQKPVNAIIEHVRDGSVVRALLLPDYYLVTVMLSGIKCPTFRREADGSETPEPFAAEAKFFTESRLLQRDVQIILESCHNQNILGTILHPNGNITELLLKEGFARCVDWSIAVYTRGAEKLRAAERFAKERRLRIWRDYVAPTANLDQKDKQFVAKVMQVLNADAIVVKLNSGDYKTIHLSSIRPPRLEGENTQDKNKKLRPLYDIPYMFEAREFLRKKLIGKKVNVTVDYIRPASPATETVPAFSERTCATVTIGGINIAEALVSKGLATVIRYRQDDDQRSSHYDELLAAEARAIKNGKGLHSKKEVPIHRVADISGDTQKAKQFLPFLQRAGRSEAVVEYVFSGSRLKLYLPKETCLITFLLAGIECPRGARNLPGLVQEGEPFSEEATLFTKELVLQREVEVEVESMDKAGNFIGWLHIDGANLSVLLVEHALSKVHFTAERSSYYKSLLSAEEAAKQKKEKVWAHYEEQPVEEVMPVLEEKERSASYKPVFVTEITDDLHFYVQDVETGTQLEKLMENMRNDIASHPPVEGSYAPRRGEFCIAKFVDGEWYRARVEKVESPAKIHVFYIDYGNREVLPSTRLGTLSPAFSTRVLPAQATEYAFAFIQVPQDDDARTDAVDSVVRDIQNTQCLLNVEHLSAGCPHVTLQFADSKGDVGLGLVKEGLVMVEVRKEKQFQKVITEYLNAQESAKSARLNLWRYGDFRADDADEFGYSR
UniProt P51532: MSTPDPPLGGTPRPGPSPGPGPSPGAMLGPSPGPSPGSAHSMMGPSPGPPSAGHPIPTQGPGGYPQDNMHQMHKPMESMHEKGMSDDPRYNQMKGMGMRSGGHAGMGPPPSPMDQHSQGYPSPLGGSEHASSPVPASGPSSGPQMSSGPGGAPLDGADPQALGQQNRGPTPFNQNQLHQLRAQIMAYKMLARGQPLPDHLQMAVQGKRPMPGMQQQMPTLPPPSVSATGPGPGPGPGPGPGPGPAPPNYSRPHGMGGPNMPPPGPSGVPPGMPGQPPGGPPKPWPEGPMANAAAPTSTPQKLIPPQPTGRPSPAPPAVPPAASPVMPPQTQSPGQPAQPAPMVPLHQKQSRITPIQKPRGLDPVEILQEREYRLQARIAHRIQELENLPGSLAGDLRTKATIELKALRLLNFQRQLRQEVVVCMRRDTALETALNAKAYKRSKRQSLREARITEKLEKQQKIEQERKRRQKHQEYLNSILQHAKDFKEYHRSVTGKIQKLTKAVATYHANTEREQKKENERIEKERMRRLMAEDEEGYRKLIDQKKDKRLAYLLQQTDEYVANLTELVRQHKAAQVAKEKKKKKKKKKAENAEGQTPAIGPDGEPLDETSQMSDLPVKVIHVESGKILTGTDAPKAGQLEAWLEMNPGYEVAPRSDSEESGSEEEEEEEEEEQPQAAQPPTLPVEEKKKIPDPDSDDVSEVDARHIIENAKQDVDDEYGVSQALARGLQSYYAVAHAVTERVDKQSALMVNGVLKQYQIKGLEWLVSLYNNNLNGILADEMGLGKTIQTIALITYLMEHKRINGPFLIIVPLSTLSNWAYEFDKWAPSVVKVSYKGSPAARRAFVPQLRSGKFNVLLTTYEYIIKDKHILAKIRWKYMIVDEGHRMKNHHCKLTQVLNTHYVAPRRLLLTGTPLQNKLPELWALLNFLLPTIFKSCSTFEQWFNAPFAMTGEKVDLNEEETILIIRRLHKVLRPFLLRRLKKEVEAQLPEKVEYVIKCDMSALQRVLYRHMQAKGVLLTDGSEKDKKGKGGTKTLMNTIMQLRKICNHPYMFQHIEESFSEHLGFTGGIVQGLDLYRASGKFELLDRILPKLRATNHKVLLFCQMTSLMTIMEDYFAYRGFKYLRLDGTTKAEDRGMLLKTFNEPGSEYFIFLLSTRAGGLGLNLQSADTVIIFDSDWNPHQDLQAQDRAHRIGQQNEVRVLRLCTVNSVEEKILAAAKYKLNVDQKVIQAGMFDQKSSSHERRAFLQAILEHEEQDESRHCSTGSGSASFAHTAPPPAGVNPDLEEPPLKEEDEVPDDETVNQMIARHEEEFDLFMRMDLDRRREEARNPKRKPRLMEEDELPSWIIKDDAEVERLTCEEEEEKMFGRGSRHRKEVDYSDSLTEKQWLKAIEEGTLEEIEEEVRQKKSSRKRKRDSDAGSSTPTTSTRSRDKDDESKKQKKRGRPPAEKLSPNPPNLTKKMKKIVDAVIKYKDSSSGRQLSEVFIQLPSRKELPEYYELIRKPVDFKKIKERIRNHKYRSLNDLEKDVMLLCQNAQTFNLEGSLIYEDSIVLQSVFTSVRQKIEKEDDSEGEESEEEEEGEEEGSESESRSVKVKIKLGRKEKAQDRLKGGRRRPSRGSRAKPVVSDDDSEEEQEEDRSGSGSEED

Molecular target: Staphylococcal Nuclease Domain-containing protein 1 (SND1) (human (endogenous in U251)) (UniProt Q7KZF4)
Test: co-IP; total U251 cell lysate (Pierce IP Lysis/Wash Buffer: 0.025 M Tris pH 7.4, 0.15 M NaCl, 0.001 M EDTA, 1% NP-40, 5% glycerol); IP with anti-SND1 overnight at 4 °C, anti-rabbit IgG as negative control; western blot for BRG1

- binding: binds
Substance: BRG1, a core SWI/SNF subunit (from UniProt P51532 1-1647)
